Earlier results on 1 molecule are cited in patent USRE39707E1, “Camptothecin derivatives” (Catholic Healthcare West, priority 2001, dated 2007).

For this series the following is noted: background statement; cited from earlier work.

Consider `CC[C@@]1(O)C(=O)OCc2c1cc1n(c2=O)Cc2cc3ccccc3nc2-1` [CPT, (S)-4-ethyl-4-hydroxy-1H-pyrano-[3′,4′:6,7]indolizino[1,2-b]quinoline-3,14(4H,12H)-dione, reference compound], for which the solubility in water entry is on record as “essentially insoluble in water”.
